Results taken from US5493006A (The Salk Institute for Biological Studies, priority 1993, dated 1996).

Experiment: general procedure: Boc solid-phase peptide synthesis; MBHA hydrochloride resin (Bachem), about 0.43 to 0.46 mequiv/gm; DCC (DCC/HOBt for Asn, Gln); BOP/DIEA for on-resin cyclization
Settings: whole synthesis; for final purity (method not given): purity further confirmed by MS and capillary zone electrophoresis

Substance | isolated yield [%] | isolated yield (of expected amount from the original substitution of the MBHA resin) [%] | final purity (method not given)
PEPTIDE1{[dF].H.L.L.R.E.V.L.C.[Nle].A.C.A.E.Q.L.A.Q.Q.A.H.S.N.R.K.L.[Nle].E.I.I.[am]}$PEPTIDE1,PEPTIDE1,9:R3-12:R3$$$V2.0 | 4.4 |  | 
PEPTIDE1{[dF].H.L.L.R.E.V.L.E.[Nle].A.K.A.E.Q.L.A.Q.Q.A.H.S.N.R.K.L.[Nle].E.I.I.[am]}$PEPTIDE1,PEPTIDE1,9:R3-12:R3$$$V2.0 |  | 3.6 | about 98%
PEPTIDE1{[dF].H.L.L.R.E.V.L.E.[Nle].A.[Orn].A.E.Q.L.A.Q.Q.A.H.S.N.R.K.L.[Nle].E.I.I.[am]}$PEPTIDE1,PEPTIDE1,9:R3-12:R3$$$V2.0 |  |  | about 98%

Some peptides are written in HELM: one residue between dots, names in brackets for other building blocks, links after the first $.
